Assay results taken from PMC6755991.
These are yes or no findings as the source states them, for the method shown. In cells and extracts the contact can be indirect. Some results given as binding are weak or reduced against the parent protein; the word gives no strength.

Amino acid sequences for entries named in this document (tags omitted). Residues count along the entry.
UniProt P08069, residues 31-1367: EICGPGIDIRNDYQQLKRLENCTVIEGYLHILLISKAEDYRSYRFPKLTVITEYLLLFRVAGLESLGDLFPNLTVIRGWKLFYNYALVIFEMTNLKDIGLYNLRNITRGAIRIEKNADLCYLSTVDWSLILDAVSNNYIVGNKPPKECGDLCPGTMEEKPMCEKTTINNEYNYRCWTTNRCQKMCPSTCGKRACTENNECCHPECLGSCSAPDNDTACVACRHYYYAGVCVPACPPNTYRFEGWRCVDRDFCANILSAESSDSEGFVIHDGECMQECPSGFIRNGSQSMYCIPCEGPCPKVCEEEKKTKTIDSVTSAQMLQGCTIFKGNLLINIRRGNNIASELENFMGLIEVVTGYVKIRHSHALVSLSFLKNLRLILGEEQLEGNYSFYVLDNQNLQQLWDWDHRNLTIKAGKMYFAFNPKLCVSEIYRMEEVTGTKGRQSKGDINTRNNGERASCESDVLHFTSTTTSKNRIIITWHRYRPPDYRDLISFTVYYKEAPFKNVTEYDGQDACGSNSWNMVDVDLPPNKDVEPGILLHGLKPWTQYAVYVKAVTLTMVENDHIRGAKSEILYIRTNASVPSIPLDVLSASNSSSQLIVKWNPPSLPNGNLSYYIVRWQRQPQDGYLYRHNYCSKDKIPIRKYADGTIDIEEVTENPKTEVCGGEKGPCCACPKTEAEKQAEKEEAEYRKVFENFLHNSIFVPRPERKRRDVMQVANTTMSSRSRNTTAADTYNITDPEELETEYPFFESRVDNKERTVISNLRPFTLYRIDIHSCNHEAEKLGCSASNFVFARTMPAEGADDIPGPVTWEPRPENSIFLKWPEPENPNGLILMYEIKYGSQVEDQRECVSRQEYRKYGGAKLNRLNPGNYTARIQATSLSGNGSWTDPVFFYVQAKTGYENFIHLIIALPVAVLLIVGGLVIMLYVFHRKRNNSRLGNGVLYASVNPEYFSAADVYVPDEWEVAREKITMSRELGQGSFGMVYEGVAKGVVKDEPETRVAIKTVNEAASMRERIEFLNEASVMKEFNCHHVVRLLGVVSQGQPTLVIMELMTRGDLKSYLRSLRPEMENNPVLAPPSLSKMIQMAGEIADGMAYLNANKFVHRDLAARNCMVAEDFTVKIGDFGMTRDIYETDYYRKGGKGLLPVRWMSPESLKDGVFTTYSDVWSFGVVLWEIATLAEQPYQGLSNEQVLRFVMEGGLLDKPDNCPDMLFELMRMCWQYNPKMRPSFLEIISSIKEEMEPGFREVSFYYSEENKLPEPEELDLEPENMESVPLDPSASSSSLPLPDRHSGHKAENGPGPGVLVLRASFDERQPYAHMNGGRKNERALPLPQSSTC
UniProt Q99873: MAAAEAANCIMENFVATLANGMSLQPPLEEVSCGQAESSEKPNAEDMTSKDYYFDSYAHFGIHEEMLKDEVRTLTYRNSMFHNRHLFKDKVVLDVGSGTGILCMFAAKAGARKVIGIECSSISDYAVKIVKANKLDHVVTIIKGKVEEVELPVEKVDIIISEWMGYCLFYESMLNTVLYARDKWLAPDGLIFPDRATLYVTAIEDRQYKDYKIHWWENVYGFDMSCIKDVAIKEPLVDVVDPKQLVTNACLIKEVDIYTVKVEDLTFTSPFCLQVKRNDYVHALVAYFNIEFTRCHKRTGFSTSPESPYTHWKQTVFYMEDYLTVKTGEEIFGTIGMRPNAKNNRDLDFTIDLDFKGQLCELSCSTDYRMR

How the values were obtained:
[1] = molecular target: insulin-like growth factor 1 receptor (human (endogenous in MCF-7)) (UniProt P08069); assay: proximity ligation; fluorescent PLA on methanol-fixed MCF-7 cells with antibodies to the two endogenous proteins; with or without IGF-1; siRNA knock-downs or MS023 as controls
[2] = molecular target: insulin-like growth factor 1 receptor (human (endogenous in MCF-7)) (UniProt P08069); assay: co-IP; coimmunoprecipitation of IGF-1R and PRMT1 (Supplementary Fig. S2,b); precipitating antibody not shown

Question: What does the source list for “arginine methyltransferase PRMT1 (from UniProt Q99873 1-371) (enzyme)”?
Answer: binding [1]: binds; binding [2]: binds
